What all share (assay): DAPPL (digital affinity profiling via proximity ligation, sequencing)
What all share (conditions): 10 mM Tris-HCl pH 7.5, 50 mM NaCl, 1 mM DTT, 4% glycerol, room temperature, 30 min; GST-TFs on glutathione beads, 16-mer random dsDNA library, 0.1% …; high values mean tight binding; double strand, one strand shown; scale: fold enrichment (6-mer frequency, TF over GST control)

By UniProt entry, the sequences of proteins in these tests, tags left out. Where a name states a change or a piece, a line headed by the entry shows the natural chain unless it says otherwise.
UniProt P32519: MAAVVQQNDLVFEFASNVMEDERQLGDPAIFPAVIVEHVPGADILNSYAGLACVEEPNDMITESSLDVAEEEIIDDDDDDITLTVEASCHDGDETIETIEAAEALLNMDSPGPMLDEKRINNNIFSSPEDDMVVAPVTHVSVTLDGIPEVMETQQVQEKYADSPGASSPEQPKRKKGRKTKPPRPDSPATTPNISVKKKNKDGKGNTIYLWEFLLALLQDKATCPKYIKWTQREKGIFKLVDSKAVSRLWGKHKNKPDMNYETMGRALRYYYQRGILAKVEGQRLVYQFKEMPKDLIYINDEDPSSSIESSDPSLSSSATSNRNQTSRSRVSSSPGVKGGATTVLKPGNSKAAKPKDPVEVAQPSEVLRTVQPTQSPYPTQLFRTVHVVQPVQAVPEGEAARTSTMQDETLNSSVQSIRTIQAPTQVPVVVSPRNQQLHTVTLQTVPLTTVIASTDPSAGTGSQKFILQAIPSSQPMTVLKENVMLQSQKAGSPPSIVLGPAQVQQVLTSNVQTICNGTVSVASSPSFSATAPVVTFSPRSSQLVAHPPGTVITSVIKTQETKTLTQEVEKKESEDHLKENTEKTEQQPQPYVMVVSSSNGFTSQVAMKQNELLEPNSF
UniProt P50549: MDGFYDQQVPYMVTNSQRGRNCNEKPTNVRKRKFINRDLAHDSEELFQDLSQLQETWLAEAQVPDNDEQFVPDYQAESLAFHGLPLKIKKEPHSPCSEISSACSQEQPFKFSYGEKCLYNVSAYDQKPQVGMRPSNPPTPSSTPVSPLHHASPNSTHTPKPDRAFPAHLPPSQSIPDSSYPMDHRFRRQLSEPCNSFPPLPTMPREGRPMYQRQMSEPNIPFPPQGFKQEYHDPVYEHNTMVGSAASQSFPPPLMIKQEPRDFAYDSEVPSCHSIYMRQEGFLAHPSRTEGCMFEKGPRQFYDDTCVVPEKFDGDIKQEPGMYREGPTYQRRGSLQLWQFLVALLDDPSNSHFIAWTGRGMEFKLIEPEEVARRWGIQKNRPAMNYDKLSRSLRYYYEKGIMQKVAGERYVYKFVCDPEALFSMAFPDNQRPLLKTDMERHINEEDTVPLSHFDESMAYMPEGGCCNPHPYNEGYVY

Assay [1] deals with T1, ERG (UniProt P11308).
T1 sequence: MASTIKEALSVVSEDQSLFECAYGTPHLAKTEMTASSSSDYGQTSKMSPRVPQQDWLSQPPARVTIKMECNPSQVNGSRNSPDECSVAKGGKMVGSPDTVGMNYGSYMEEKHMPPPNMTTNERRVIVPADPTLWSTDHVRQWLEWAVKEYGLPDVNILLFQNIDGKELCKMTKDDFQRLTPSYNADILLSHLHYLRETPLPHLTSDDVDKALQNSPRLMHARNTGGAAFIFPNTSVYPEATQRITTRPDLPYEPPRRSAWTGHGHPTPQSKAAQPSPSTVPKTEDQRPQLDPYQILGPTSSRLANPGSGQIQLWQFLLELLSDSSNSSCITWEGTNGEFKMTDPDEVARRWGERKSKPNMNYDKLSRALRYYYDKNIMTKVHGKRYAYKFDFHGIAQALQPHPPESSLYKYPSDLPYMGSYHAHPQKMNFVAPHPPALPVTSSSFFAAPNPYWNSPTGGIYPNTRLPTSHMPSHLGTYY

In assay [2] the target is ELF1 (UniProt P32519).
In assay [3] the target is T2, ELK4 (UniProt P28324-2).
T2 sequence: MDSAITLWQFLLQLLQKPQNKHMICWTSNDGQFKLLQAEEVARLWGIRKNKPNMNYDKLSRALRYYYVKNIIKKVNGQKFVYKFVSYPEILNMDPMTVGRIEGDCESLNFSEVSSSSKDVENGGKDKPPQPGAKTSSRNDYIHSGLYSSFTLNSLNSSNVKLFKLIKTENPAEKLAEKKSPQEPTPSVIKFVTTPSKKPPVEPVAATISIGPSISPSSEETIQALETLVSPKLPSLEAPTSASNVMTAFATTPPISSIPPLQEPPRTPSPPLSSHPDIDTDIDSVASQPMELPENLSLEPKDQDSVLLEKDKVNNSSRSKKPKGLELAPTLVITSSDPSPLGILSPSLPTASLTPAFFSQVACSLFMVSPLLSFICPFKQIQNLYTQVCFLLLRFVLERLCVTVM

The target in assay [4] is T3, ETV4 (UniProt P43268).
T3 sequence: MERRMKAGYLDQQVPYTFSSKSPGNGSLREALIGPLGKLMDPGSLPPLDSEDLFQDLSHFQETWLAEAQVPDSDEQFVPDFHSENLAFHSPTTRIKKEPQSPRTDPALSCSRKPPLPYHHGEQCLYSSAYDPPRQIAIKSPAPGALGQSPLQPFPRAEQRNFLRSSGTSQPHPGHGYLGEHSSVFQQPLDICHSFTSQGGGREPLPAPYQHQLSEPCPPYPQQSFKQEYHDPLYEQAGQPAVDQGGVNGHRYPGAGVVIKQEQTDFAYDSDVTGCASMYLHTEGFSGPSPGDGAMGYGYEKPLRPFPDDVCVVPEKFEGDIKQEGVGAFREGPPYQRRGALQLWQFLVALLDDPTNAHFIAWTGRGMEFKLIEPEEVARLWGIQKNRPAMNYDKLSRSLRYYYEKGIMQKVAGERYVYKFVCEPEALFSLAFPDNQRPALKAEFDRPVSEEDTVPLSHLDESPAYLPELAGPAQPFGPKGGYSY

Assay [5] has as its target ETV1 (UniProt P50549).
For assay [6], the target named is T4, ERF (UniProt P50548).
T4 sequence: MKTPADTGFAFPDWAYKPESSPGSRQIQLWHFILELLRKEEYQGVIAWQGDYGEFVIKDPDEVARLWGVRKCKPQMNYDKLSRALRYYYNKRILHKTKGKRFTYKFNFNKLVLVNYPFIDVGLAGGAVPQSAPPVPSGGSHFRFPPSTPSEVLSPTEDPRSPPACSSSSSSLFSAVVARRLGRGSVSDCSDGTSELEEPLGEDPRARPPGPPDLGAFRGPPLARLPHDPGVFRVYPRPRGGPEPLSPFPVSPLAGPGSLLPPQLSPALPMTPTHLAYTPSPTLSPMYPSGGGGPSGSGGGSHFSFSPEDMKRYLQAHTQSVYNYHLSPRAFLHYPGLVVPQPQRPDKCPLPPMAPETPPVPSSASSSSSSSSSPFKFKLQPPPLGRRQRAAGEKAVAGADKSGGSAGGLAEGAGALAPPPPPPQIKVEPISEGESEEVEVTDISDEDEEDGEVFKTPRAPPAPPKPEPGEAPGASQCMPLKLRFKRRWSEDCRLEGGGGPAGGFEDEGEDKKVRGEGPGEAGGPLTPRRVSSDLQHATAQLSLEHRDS

The entries are a selection whose mix differs from that of the whole data set. For part of these data: At the low end of the ranking, values are background and their order means little. Some of the results follow. For part of these data: The source does not settle which construct or isoform was used.

As for ACGTGT, the binding signal in assay [1] turned out to be 0.64; in assay [2], 0.648; in assay [3] it was 0.682; in assay [4], 0.657; in assay [5], 0.668; in assay [6] it was 0.641.
Regarding CCGTGG, the binding signal in assay [1] was found to be 0.409; in assay [2] it was 0.381; in assay [3] it was 0.54; in assay [4], 0.462; in assay [5], 0.409; in assay [6], 0.453.
Take CAAGCG: the binding signal in assay [1] is 0.929; in assay [2], 0.91; in assay [3], 0.909; in assay [4], 0.895; in assay [5] it was 0.86; in assay [6], 0.94.
For the sequence CGGACT, the binding signal came to 0.878 in assay [1]; 0.914 in assay [2]; 0.812 in assay [3]; 0.791 in assay [4]; 0.885 in assay [5]; 0.784 in assay [6].
Turning to GAGAGT, the binding signal in assay [1] came to 0.371; in assay [2], 0.342; in assay [3], 0.36; in assay [4] it was 0.312; in assay [5] it was 0.329; in assay [6] it was 0.371.
In the case of GGGGGG, the binding signal in assay [1] was found to be 0.645; in assay [2], 0.571; in assay [3] it was 0.571; in assay [4], 0.539; in assay [5], 0.619; in assay [6], 0.741.
Consider GATAGG, for which the binding signal in assay [1] was found to be 0.876; in assay [2] it was 0.868; in assay [3], 0.901; in assay [4], 0.785; in assay [5], 0.852; in assay [6], 0.807.
As to GGACGG, the binding signal in assay [1] is 0.55; in assay [2], 0.525; in assay [3] it was 0.434; in assay [4], 0.518; in assay [5], 0.503; in assay [6], 0.529.
With CAGAGA, the binding signal was 0.602 in assay [1]; 0.625 in assay [2]; 0.732 in assay [3]; 0.633 in assay [4]; 0.607 in assay [5]; 0.625 in assay [6].
In the case of GTCATC, the binding signal amounted to 0.85 in assay [1]; 0.847 in assay [2]; 0.877 in assay [3]; 0.88 in assay [4]; 0.827 in assay [5]; 0.938 in assay [6].
In the case of CAAAGG, the binding signal in assay [1] came out at 0.804; in assay [2] it was 0.799; in assay [3] it was 0.836; in assay [4] it was 0.855; in assay [5], 0.802; in assay [6], 0.88.
For TAAGTG, the binding signal in assay [1] is 0.804; in assay [2], 0.818; in assay [3] it was 0.802; in assay [4] it was 0.832; in assay [5], 0.76; in assay [6], 0.828.
Regarding CGTAAG, the binding signal stood at 0.764 in assay [1]; 0.745 in assay [2]; 0.793 in assay [3]; 0.733 in assay [4]; 0.789 in assay [5]; 0.749 in assay [6].
Take GACCCG: the binding signal in assay [1] came out at 0.881; in assay [2], 0.865; in assay [3] it was 0.799; in assay [4], 0.889; in assay [5], 0.854; in assay [6], 0.842.
Turning to GCCGGG, the binding signal in assay [1] was determined as 0.398; in assay [2], 0.376; in assay [3], 0.402; in assay [4], 0.397; in assay [5] it was 0.42; in assay [6], 0.377.
As to CCGTGA, the binding signal in assay [1] worked out at 0.182; in assay [2] it was 0.168; in assay [3], 0.21; in assay [4] it was 0.17; in assay [5] it was 0.189; in assay [6], 0.193.
Take GTGAGA: the binding signal in assay [1] is 0.302; in assay [2], 0.3; in assay [3], 0.347; in assay [4] it was 0.295; in assay [5], 0.283; in assay [6], 0.327.
As for GCGTAG, the binding signal in assay [1] turned out to be 0.76; in assay [2] it was 0.775; in assay [3] it was 0.867; in assay [4], 0.712; in assay [5] it was 0.776; in assay [6], 0.79.
Regarding CGGGTT, the binding signal in assay [1] amounted to 0.863; in assay [2], 0.897; in assay [3], 0.764; in assay [4] it was 0.872; in assay [5], 0.88; in assay [6], 0.817.
On to TTCGTG, for which the binding signal was determined as 0.798 in assay [1]; 0.858 in assay [2]; 0.896 in assay [3]; 0.916 in assay [4]; 0.86 in assay [5]; 0.916 in assay [6].
Take GTAGTA: the binding signal was 0.901 in assay [1]; 0.882 in assay [2]; 0.853 in assay [3]; 0.905 in assay [4]; 0.935 in assay [5]; 0.818 in assay [6].
With GACGGC, the binding signal is 0.77 in assay [1]; 0.76 in assay [2]; 0.672 in assay [3]; 0.69 in assay [4]; 0.754 in assay [5]; 0.728 in assay [6].
On to GCAGGA, for which the binding signal in assay [1] is 0.878; in assay [2], 0.796; in assay [3], 0.753; in assay [4] it was 0.848; in assay [5] it was 0.851; in assay [6] it was 0.733.
Take CACGGG: the binding signal in assay [1] was found to be 0.778; in assay [2] it was 0.755; in assay [3], 0.915; in assay [4], 0.818; in assay [5], 0.784; in assay [6], 0.767.
In the case of ATCGGA, the binding signal in assay [1] turned out to be 0.439; in assay [2], 0.425; in assay [3], 0.438; in assay [4], 0.412; in assay [5], 0.421; in assay [6], 0.45.
In the case of GTGCGT, the binding signal in assay [1] stood at 0.603; in assay [2], 0.604; in assay [3], 0.624; in assay [4], 0.62; in assay [5], 0.571; in assay [6] it was 0.683.
Take AGGTCG: the binding signal in assay [1] was determined as 0.5; in assay [2] it was 0.454; in assay [3], 0.52; in assay [4] it was 0.524; in assay [5], 0.538; in assay [6], 0.526.
As for CGTAGT, the binding signal came to 0.758 in assay [1]; 0.841 in assay [2]; 0.865 in assay [3]; 0.793 in assay [4]; 0.766 in assay [5]; 0.803 in assay [6].
On to AAGGAG, for which the binding signal in assay [1] is 0.351; in assay [2], 0.333; in assay [3] it was 0.355; in assay [4] it was 0.349; in assay [5], 0.334; in assay [6], 0.372.
Turning to AGGAGA, the binding signal came to 0.217 in assay [1]; 0.214 in assay [2]; 0.19 in assay [3]; 0.198 in assay [4]; 0.203 in assay [5]; 0.232 in assay [6].

For the origin of these results see paper PMC7862700.
